Assay results from publication PMC5548489.
No constants are given. Whether binding was seen depends on the method and setting. In cells and extracts the contact can be indirect. Here binding means that the protein was enriched with, or labelled near, the bait; the list need not be complete.

Chains of the proteins cited; added tags and fusions are not shown.
UniProt P03372: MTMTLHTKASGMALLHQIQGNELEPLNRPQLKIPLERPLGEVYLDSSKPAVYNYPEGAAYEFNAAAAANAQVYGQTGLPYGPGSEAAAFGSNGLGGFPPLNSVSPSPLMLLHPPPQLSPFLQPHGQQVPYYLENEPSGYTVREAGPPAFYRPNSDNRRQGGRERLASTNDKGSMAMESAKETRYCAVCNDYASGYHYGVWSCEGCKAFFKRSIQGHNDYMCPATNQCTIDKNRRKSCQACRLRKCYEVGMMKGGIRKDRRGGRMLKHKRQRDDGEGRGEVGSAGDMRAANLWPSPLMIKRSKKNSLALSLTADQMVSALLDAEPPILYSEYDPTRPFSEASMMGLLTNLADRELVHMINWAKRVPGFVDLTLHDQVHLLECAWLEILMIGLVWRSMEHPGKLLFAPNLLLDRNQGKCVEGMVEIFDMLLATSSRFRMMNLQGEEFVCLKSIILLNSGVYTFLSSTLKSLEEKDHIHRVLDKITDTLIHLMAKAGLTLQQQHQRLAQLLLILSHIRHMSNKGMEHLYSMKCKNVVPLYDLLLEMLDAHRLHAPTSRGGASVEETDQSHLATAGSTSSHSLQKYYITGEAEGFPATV

B1: FAM83H (protein, UniProt Q6ZRV2 1-1179)
chain: MARRSQSSSQGDNPLAPGYLPPHYKEYYRLAVDALAEGGSEAYSRFLATEGAPDFLCPEELEHVSRHLRPPQYVTREPPEGSLLDVDMDGSSGTYWPVNSDQAVPELDLGWPLTFGFQGTEVTTLVQPPPPDSPSIKDEARRMIRSAQQVVAVVMDMFTDVDLLSEVLEAAARRVPVYILLDEMNAQHFLDMADKCRVNLQHVDFLRVRTVAGPTYYCRTGKSFKGHVKEKFLLVDCAVVMSGSYSFMWSFEKIHRSLAHVFQGELVSSFDEEFRILFAQSEPLVPSAAALARMDAYALAPYAGAGPLVGVPGVGAPTPFSFPKRAHLLFPPPREEGLGFPSFLDPDRHFLSAFRREEPPRMPGGALEPHAGLRPLSRRLEAEAGPAGELAGARGFFQARHLEMDAFKRHSFATEGAGAVENFAAARQVSRQTFLSHGDDFRFQTSHFHRDQLYQQQYQWDPQLTPARPQGLFEKLRGGRAGFADPDDFTLGAGPRFPELGPDGHQRLDYVPSSASREVRHGSDPAFAPGPRGLEPSGAPRPNLTQRFPCQAAARPGPDPAPEAEPERRGGPEGRAGLRRWRLASYLSGCHGEDGGDDGLPAPMEAEAYEDDVLAPGGRAPAGDLLPSAFRVPAAFPTKVPVPGPGSGGNGPEREGPEEPGLAKQDSFRSRLNPLVQRSSRLRSSLIFSTSQAEGAAGAAAATEKVQLLHKEQTVSETLGPGGEAVRSAASTKVAELLEKYKGPARDPGGGAGAITVASHSKAVVSQAWREEVAAPGAVGGERRSLESCLLDLRDSFAQQLHQEAERQPGAASLTAAQLLDTLGRSGSDRLPSRFLSAQSHSTSPQGLDSPLPLEGSGAHQVLHNESKGSPTSAYPERKGSPTPGFSTRRGSPTTGFIEQKGSPTSAYPERRGSPVPPVPERRSSPVPPVPERRGSLTLTISGESPKAGPAEEGPSGPMEVLRKGSLRLRQLLSPKGERRMEDEGGFPVPQENGQPESPRRLSLGQGDSTEAATEERGPRARLSSATANALYSSNLRDDTKAILEQISAHGQKHRAVPAPSPGPTHNSPELGRPPAAGVLAPDMSDKDKCSAIFRSDSLGTQGRLSRTLPASAEERDRLLRRMESMRKEKRVYSRFEVFCKKEEASSPGAGEGPAEEGTRDSKVGKFVPKILGTFKSKK
B2: Q9NVI7-2 (protein, UniProt Q9NVI7-2 1-586)
chain: MSWLFGINKGPKGEGAGPPPPLPPAQPGAEGGGDRGLGDRPAPKDKWSNFDPTGLERAAKAARELEHSRYAKDALNLAQMQEQTLQLEQQSKLKEYEAAVEQLKSEQIRAQAEERRKTLSEETRQHQARAQYQDKLARQRYEDQLKQQQLLNEENLRKQEESVQKQEAMRRATVEREMELRHKNEMLRVEAEARARAKAERENADIIREQIRLKAAEHRQTVLESIRTAGTLFGEGFRAFVTDWDKVTATVAGLTLLAVGVYSAKNATLVAGRFIEARLGKPSLVRETSRITVLEALRHPIQVSRRLLSRPQDALEGVVLSPSLEARVRDIAIATRNTKKNRSLYRNILMYGPPGTGKTLFAKKLALHSGMDYAIMTGGDVAPMGREGVTAMHKLFDWANTSRRGLLLFVDEADAFLRKRATEKISEDLRATLNAFLYRTGQHSNKFMLVLASNQPEQFDWAINDRINEMVHFDLPGQEERERLVRMYFDKYVLKPATEGKQRLKLAQFDYGRKCSEVARLTEGMSGREIAQLAVSWQATAYASEDGVLTEAMMDTRVQDAVQQHQQKMCWLKAEGPGRGDEPSPS
B3: CD2BP2 (protein, UniProt O95400 1-341)
chain: MPKRKVTFQGVGDEEDEDEIIVPKKKLVDPVAGSGGPGSRFKGKHSLDSDEEEDDDDGGSSKYDILASEDVEGQEAATLPSEGGVRITPFNLQEEMEEGHFDADGNYFLNRDAQIRDSWLDNIDWVKIRERPPGQRQASDSEEEDSLGQTSMSAQALLEGLLELLLPRETVAGALRRLGARGGGKGRKGPGQPSSPQRLDRLSGLADQMVARGNLGVYQETRERLAMRLKGLGCQTLGPHNPTPPPSLDMFAEELAEEELETPTPTQRGEAESRGDGLVDVMWEYKWENTGDAELYGPFTSAQMQTWVSEGYFPDGVYCRKLDPPGGQFYNSKRIDFDLYT
B4: CHERP (protein, UniProt Q8IWX8 1-916)
chain: MEMPLPPDDQELRNVIDKLAQFVARNGPEFEKMTMEKQKDNPKFSFLFGGEFYSYYKCKLALEQQQLICKQQTPELEPAATMPPLPQPPLAPAAPIPPAQGAPSMDELIQQSQWNLQQQEQHLLALRQEQVTAAVAHAVEQQMQKLLEETQLDMNEFDNLLQPIIDTCTKDAISAGKNWMFSNAKSPPHCELMAGHLRNRITADGAHFELRLHLIYLINDVLHHCQRKQARELLAALQKVVVPIYCTSFLAVEEDKQQKIARLLQLWEKNGYFDDSIIQQLQSPALGLGQYQATLINEYSSVVQPVQLAFQQQIQTLKTQHEEFVTSLAQQQQQQQQQQQQLQMPQMEAEVKATPPPPAPPPAPAPAPAIPPTTQPDDSKPPIQMPGSSEYEAPGGVQDPAAAGPRGPGPHDQIPPNKPPWFDQPHPVAPWGQQQPPEQPPYPHHQGGPPHCPPWNNSHEGMWGEQRGDPGWNGQRDAPWNNQPDAAWNSQFEGPWNSQHEQPPWGGGQREPPFRMQRPPHFRGPFPPHQQHPQFNQPPHPHNFNRFPPRFMQDDFPPRHPFERPPYPHRFDYPQGDFPAEMGPPHHHPGHRMPHPGINEHPPWAGPQHPDFGPPPHGFNGQPPHMRRQGPPHINHDDPSLVPNVPYFDLPAGLMAPLVKLEDHEYKPLDPKDIRLPPPMPPSERLLAAVEAFYSPPSHDRPRNSEGWEQNGLYEFFRAKMRARRRKGQEKRNSGPSRSRSRSKSRGRSSSRSNSRSSKSSGSYSRSRSRSCSRSYSRSRSRSRSRSRSSRSRSRSQSRSRSKSYSPGRRRRSRSRSPTPPSSAGLGSNSAPPIPDSRLGEENKGHQMLVKMGWSGSGGLGAKEQGIQDPIKGGDVRDKWDQYKGVGVALDDPYENYRRNKSYSFIARMKARDECK
B5: CPSF1 (protein, UniProt Q10570 1-1443)
chain: MYAVYKQAHPPTGLEFSMYCNFFNNSERNLVVAGTSQLYVYRLNRDAEALTKNDRSTEGKAHREKLELAASFSFFGNVMSMASVQLAGAKRDALLLSFKDAKLSVVEYDPGTHDLKTLSLHYFEEPELRDGFVQNVHTPRVRVDPDGRCAAMLVYGTRLVVLPFRRESLAEEHEGLVGEGQRSSFLPSYIIDVRALDEKLLNIIDLQFLHGYYEPTLLILFEPNQTWPGRVAVRQDTCSIVAISLNITQKVHPVIWSLTSLPFDCTQALAVPKPIGGVVVFAVNSLLYLNQSVPPYGVALNSLTTGTTAFPLRTQEGVRITLDCAQATFISYDKMVISLKGGEIYVLTLITDGMRSVRAFHFDKAAASVLTTSMVTMEPGYLFLGSRLGNSLLLKYTEKLQEPPASAVREAADKEEPPSKKKRVDATAGWSAAGKSVPQDEVDEIEVYGSEAQSGTQLATYSFEVCDSILNIGPCANAAVGEPAFLSEEFQNSPEPDLEIVVCSGHGKNGALSVLQKSIRPQVVTTFELPGCYDMWTVIAPVRKEEEDNPKGEGTEQEPSTTPEADDDGRRHGFLILSREDSTMILQTGQEIMELDTSGFATQGPTVFAGNIGDNRYIVQVSPLGIRLLEGVNQLHFIPVDLGAPIVQCAVADPYVVIMSAEGHVTMFLLKSDSYGGRHHRLALHKPPLHHQSKVITLCLYRDLSGMFTTESRLGGARDELGGRSGPEAEGLGSETSPTVDDEEEMLYGDSGSLFSPSKEEARRSSQPPADRDPAPFRAEPTHWCLLVRENGTMEIYQLPDWRLVFLVKNFPVGQRVLVDSSFGQPTTQGEARREEATRQGELPLVKEVLLVALGSRQSRPYLLVHVDQELLIYEAFPHDSQLGQGNLKVRFKKVPHNINFREKKPKPSKKKAEGGGAEEGAGARGRVARFRYFEDIYGYSGVFICGPSPHWLLVTGRGALRLHPMAIDGPVDSFAPFHNVNCPRGFLYFNRQGELRISVLPAYLSYDAPWPVRKIPLRCTAHYVAYHVESKVYAVATSTNTPCARIPRMTGEEKEFETIERDERYIHPQQEAFSIQLISPVSWEAIPNARIELQEWEHVTCMKTVSLRSEETVSGLKGYVAAGTCLMQGEEVTCRGRILIMDVIEVVPEPGQPLTKNKFKVLYEKEQKGPVTALCHCNGHLVSAIGQKIFLWSLRASELTGMAFIDTQLYIHQMISVKNFILAADVMKSISLLRYQEESKTLSLVSRDAKPLEVYSVDFMVDNAQLGFLVSDRDRNLMVYMYLPEAKESFGGMRLLRRADFHVGAHVNTFWRTPCRGATEGLSKKSVVWENKHITWFATLDGGIGLLLPMQEKTYRRLLMLQNALTTMLPHHAGLNPRAFRMLHVDRRTLQNAVRNVLDGELLNRYLYLSTMERSELAKKIGTTPDIILDDLLETDRVTAHF
B6: CPSF2 (protein, UniProt Q9P2I0 1-782)
chain: MTSIIKLTTLSGVQEESALCYLLQVDEFRFLLDCGWDEHFSMDIIDSLRKHVHQIDAVLLSHPDPLHLGALPYAVGKLGLNCAIYATIPVYKMGQMFMYDLYQSRHNTEDFTLFTLDDVDAAFDKIQQLKFSQIVNLKGKGHGLSITPLPAGHMIGGTIWKIVKDGEEEIVYAVDFNHKREIHLNGCSLEMLSRPSLLITDSFNATYVQPRRKQRDEQLLTNVLETLRGDGNVLIAVDTAGRVLELAQLLDQIWRTKDAGLGVYSLALLNNVSYNVVEFSKSQVEWMSDKLMRCFEDKRNNPFQFRHLSLCHGLSDLARVPSPKVVLASQPDLECGFSRDLFIQWCQDPKNSIILTYRTTPGTLARFLIDNPSEKITEIELRKRVKLEGKELEEYLEKEKLKKEAAKKLEQSKEADIDSSDESDIEEDIDQPSAHKTKHDLMMKGEGSRKGSFFKQAKKSYPMFPAPEERIKWDEYGEIIKPEDFLVPELQATEEEKSKLESGLTNGDEPMDQDLSDVPTKCISTTESIEIKARVTYIDYEGRSDGDSIKKIINQMKPRQLIIVHGPPEASQDLAECCRAFGGKDIKVYMPKLHETVDATSETHIYQVRLKDSLVSSLQFCKAKDAELAWIDGVLDMRVSKVDTGVILEEGELKDDGEDSEMQVEAPSDSSVIAQQKAMKSLFGDDEKETGEESEIIPTLEPLPPHEVPGHQSVFMNEPRLSDFKQVLLREGIQAEFVGGVLVCNNQVAVRRTETGRIGLEGCLCQDFYRIRDLLYEQYAIV
B7: CSTF3 (protein, UniProt Q12996 1-717)
chain: MSGDGATEQAAEYVPEKVKKAEKKLEENPYDLDAWSILIREAQNQPIDKARKTYERLVAQFPSSGRFWKLYIEAEIKAKNYDKVEKLFQRCLMKVLHIDLWKCYLSYVRETKGKLPSYKEKMAQAYDFALDKIGMEIMSYQIWVDYINFLKGVEAVGSYAENQRITAVRRVYQRGCVNPMINIEQLWRDYNKYEEGINIHLAKKMIEDRSRDYMNARRVAKEYETVMKGLDRNAPSVPPQNTPQEAQQVDMWKKYIQWEKSNPLRTEDQTLITKRVMFAYEQCLLVLGHHPDIWYEAAQYLEQSSKLLAEKGDMNNAKLFSDEAANIYERAISTLLKKNMLLYFAYADYEESRMKYEKVHSIYNRLLAIEDIDPTLVYIQYMKFARRAEGIKSGRMIFKKAREDTRTRHHVYVTAALMEYYCSKDKSVAFKIFELGLKKYGDIPEYVLAYIDYLSHLNEDNNTRVLFERVLTSGSLPPEKSGEIWARFLAFESNIGDLASILKVEKRRFTAFKEEYEGKETALLVDRYKFMDLYPCSASELKALGYKDVSRAKLAAIIPDPVVAPSIVPVLKDEVDRKPEYPKPDTQQMIPFQPRHLAPPGLHPVPGGVFPVPPAAVVLMKLLPPPICFQGPFVQVDELMEIFRRCKIPNTVEEAVRIITGGAPELAVEGNGPVESNAVLTKAVKRPNEDSDEDEEKGAVVPPVHDIYRARQQKRIR

biological target: estrogen receptor alpha (ER) (human (endogenous in MCF-7 and ZR-75)) (UniProt P03372); assay: affinity purification with mass spectrometry; anti-ER antibody (Santa Cruz sc-8002) on Dynabeads Protein G, 1.5 mg lysate of MCF-7 or ZR-75 cells overnight at 4°C; cells starved, vehicle or 10 µM ERX-11 for 2 hr, then 10 nM E2 for 2 hr; the named proteins are ER binders whose co-precipitation was disrupted by ERX-11

binding, binds:
B1, B2, B3, B4, B5, B6, B7
